Values quoted from earlier work, collected in patent publication US20230270672A1, “MICROEMULSION DRUG DELIVERY SYSTEM FOR TREATMENT OF ACUTE RESPIRATORY DISTRESS SYNDROME” (Council for Scientific and Industrial Research, priority 2020, published 2023).
The name of at least one read-out is uncertain.

Conditions: absorbed in the gastrointestinal tract, usually administered orally

CCN(CC)CCCC(C)Nc1ccnc2cc(Cl)ccc12 (centres unmarked) [Chloroquine]
time to reach plasma maximum concentration (Cmax): less than an hour (±30 min)

CCN(CCO)CCCC(C)Nc1ccnc2cc(Cl)ccc12 (centres unmarked) [hydroxychloroquine]
time to reach plasma maximum concentration (Cmax): less than an hour (±30 min)
